Measurements from PMC11139886.
Results are given in words; binding and its absence hold for the method and conditions named. Binding seen in cells or lysates may run through a third protein. Some entries that bind do so weakly or less than the wild type.

Protein sequences, listed by entry. Tags and fused reporters are not part of them. Lines headed by an entry give the natural chain unless they say otherwise; changes in a name come on top.
UniProt P45973: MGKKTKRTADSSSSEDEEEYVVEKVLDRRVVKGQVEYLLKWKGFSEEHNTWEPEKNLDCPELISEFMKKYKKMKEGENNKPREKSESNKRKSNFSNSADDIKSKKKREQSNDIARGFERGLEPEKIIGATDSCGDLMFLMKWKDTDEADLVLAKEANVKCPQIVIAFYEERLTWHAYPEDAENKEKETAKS
UniProt P68400: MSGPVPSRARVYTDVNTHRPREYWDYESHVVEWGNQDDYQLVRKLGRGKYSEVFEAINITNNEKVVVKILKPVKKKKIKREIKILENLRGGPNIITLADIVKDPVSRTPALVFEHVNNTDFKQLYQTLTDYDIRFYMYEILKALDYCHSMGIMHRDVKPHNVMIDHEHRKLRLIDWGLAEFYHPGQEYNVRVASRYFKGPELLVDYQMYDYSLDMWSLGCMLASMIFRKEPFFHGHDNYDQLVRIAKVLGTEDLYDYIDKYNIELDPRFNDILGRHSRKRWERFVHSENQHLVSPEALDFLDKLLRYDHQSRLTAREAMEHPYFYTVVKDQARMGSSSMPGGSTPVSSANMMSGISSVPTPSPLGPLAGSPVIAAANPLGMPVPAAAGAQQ

Experiments:
[1] = target: heterochromatin protein 1α (HP1α) T50A, FLAG-tagged (UniProt P45973); experiment: co-IP; HP1α (wild type or T50A) with CK2α; shown only in Supplementary Fig. S5D, details not shown
[2] = target: heterochromatin protein 1α (HP1α), FLAG-tagged, wild type (UniProt P45973); experiment: as above

binding [1]: binds
binding [2]: binds
Substance: casein kinase 2 α (CK2α), HA-tagged (from UniProt P68400 1-391) (enzyme)
